Screen size: about 360,000 compounds; about 7,500 (2.1%) were called active. Inconclusive results, whose numbers are uncertain, are shown with a selection of clear calls. The call rests on the fitted dose curve; in most records, active means well fitted inhibition curve with a large enough effect; inconclusive means small, poorly fitted or top-dose-only effect, or effect the other way; inactive means flat fitted curve, though single readings scatter. Potencies beside an inconclusive call are fits to weak or partial responses and may not hold up.
Test: Nrf2 qHTS screen for inhibitors; further: nearly all actives have a fitted effect of over 60% in size
Details: A549 ARE-Fluc reporter, luciferase luminescence, 18-24 h; activity change, negative = inhibition: at 46 µM (top of the series)
Outline: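 Nrf2 activity is the BugLite luminescence, read 15 min after reagent at room temperature, following CellTiter-Fluor cytotoxicity readout (30 min, 37C). Compound titrations were applied for 18-24 h to 5000 A549 ARE_Fluc cells/well in 5% FBS OPTI-MEM.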
On the % scale 0 is the no-effect control and ±100 the full control effect; potency means the concentration at half of the fitted maximal effect.

SMILES	Potency	activity change, negative = inhibition
Cc1cccc(-n2c(SCC(=O)Nc3cccc(S(=O)(=O)NC4=NCCCCC4)c3)nc3ccccc3c2=O)c1C	inconclusive: 8.2 µM [falling, partial curve, poor fit]	–
CC1CN(S(=O)(=O)c2ccc(C(=O)Nc3nnc(-c4ccccn4)o3)cc2)CC(C)O1 (configuration not stated)	–	inactive: 5.34%
Cc1ccccc1NC(=O)c1ccccc1NC(=O)Cc1cccc2ccccc12	–	inactive: 0.281%
CC(C)(C)c1nc(SCC(=O)Nc2ccc3c(c2)OCCO3)c2ccccc2n1	inconclusive: 2.91 µM [activator, full curve, poor fit]	–
Cn1c(COc2ccccc2)nnc1SCC(=O)NCc1ccccc1	inconclusive: 16.4 µM [activator, single point]	–
CCC(=O)N1N=C(c2ccc(C)o2)CC1c1ccc(OC)cc1 (configuration not stated)	inconclusive: 14.6 µM [activator, partial curve, poor fit]	–
O=C(NCCN1CCCCC1)c1ccc(Cn2c(SCc3ccc(F)cc3)nc3cccnc32)cc1	–	inactive: 6.5%
CN1CCN(C(=S)c2cn(Cc3ccc(F)cc3)c3ccccc23)CC1	inconclusive: 13 µM [falling, partial curve, poor fit]	–
Cc1ccc(NC(=O)C2CCC(CNc3c(N4CCC(C)CC4)c(=O)c3=O)CC2)cc1F (configuration not stated)	inconclusive: 10.3 µM [falling, partial curve, poor fit]	–
O=C(Cn1cc(COc2cccc([N+](=O)[O-])c2)nn1)c1ccc(O)cc1	–	inactive: 4.64%
COC(=O)c1cccc(Nc2nc3ccccc3nc2C)c1	inconclusive: 14.6 µM [falling, partial curve]	–
Nc1cccc2c(=O)c3ccccc3[nH]c12	inconclusive: 2.06 µM [falling, partial curve]	–
CC1CCOC(c2coc3ccccc3c2=O)O1 (configuration not stated)	inconclusive: 2.91 µM [activator, full curve]	–
CC(C)c1ccc(/C=C/C(=O)NCCC2=CCCCC2)cc1	–	inactive: 4.9%
CC(=O)Nc1ccc(Nc2nc(-c3cc4ccccc4oc3=O)cs2)cc1	–	inactive: 3.49%
CCc1ccc(C2NC(=S)NC3=C2C(=O)N(c2ccccc2OC)C(c2ccc(CC)cc2)N3)cc1 (configuration not stated)	inconclusive: 29.1 µM [falling, single point]	–
O=C(NCc1ccc2c(c1)OCO2)c1ccc(NS(=O)(=O)c2ccc3c(c2)OCCO3)cc1	inconclusive: 32.6 µM [falling, single point]	–
CCc1ccc(S(=O)(=O)N(C(C)=O)c2ccc3oc4c(c3c2)CCCC4)cc1	inconclusive: 10.3 µM [falling, partial curve, poor fit]	–
Cc1cc(C(=O)N/N=C/c2c[nH]c3ccccc23)c(C)o1	inconclusive: 9.2 µM [activator, partial curve]	–
COc1ccc(NS(=O)(=O)c2ccc3c(c2)NC(=O)CCS3)c(OC)c1	inconclusive: 29.1 µM [falling, single point]	–
O=C(Nc1ccccc1N(C(=O)c1ccco1)S(=O)(=O)c1cccs1)c1ccco1	–	inactive: -16.1%
C/C(=N\O)c1ccc2[nH]ccc2c1	inconclusive: 23.1 µM [activator, single point]	–
CCOc1cccc(C2C=C(c3ccc4c(c3)OCO4)NC(c3cccc(Br)c3)N2)c1O (configuration not stated)	–	inactive: -18%

An excerpt from the list above:
SMILES	Potency	activity change, negative = inhibition
CC(=O)Nc1ccc(Nc2nc(-c3cc4ccccc4oc3=O)cs2)cc1	–	inactive: 3.49%
CCc1ccc(C2NC(=S)NC3=C2C(=O)N(c2ccccc2OC)C(c2ccc(CC)cc2)N3)cc1 (configuration not stated)	inconclusive: 29.1 µM [falling, single point]	–
O=C(NCc1ccc2c(c1)OCO2)c1ccc(NS(=O)(=O)c2ccc3c(c2)OCCO3)cc1	inconclusive: 32.6 µM [falling, single point]	–

Next part

SMILES	Potency	activity change, negative = inhibition
O=C(CNC(=O)c1ccc(Cl)cc1)c1ccccc1	inconclusive: 7.31 µM [activator, partial curve, poor fit]	–
COc1cc(OC)c2c(-c3cccc(-c4ccc(N(C)C)cc4)c3)cc(=O)oc2c1	inconclusive: 3.66 µM [activator, full curve]	–
Cc1ccccc1-n1nc(C)c2c1N=C1C(Cl)=CC(Cl)=CN1C2c1ccc(C(=O)O)cc1 (configuration not stated)	inconclusive: 23.1 µM [falling, single point]	–
COc1cc(OC)c2c3c(c(C4CCCCC4)nc2c1)CCCC3	–	inactive: 20%
Cc1nn(S(=O)(=O)N2CCCCC2)c(C)c1Br	inconclusive: 6.51 µM [falling, partial curve, poor fit]	–
COc1cc(Cl)c(C)cc1NC(=O)CSc1nc2c(c(=O)[nH]1)CCC2	inconclusive: 23.1 µM [falling, single point]	–
Cc1occc1C(=O)N/N=C/C(Br)=C\c1ccccc1	inconclusive: 7.31 µM [activator, partial curve]	–
CCc1c(C)[nH]n(-c2nc(-c3ccccc3)cs2)c1=O	inconclusive: 6.51 µM [activator, partial curve, poor fit]	–
Oc1ccc(CNc2ccccc2C(F)(F)F)c2cccnc12	inconclusive: 23.1 µM [falling, single point]	–
COc1cc(/C=N/Nc2nncn2/N=C/c2ccc(O)c(OC)c2)ccc1O	–	inactive: 10.9%
Cc1cc(=O)c2cc(C(=O)Nc3ccc(C)c(C)c3)ccc2[nH]1	–	inactive: 26.6%
CCC(C)NC(=O)C1CCC(CNS(=O)(=O)c2ccc3c(c2)CC(C)N3C(C)=O)CC1 (configuration not stated)	–	inactive: -2.24%
Cc1cc(C)n2cc(-c3ccc(Cl)cc3)c(C(=O)O)c2n1	inconclusive: 14.6 µM [activator, partial curve]	–
CCc1ccc(NCc2cc3cc4c(cc3n(CC(=O)Nc3ccccc3OC)c2=O)OCCO4)cc1	–	inactive: 13.4%
Cc1ccc2c(c1)nnn2C1CCN(CC(=O)N2CCN(c3ccc(F)cc3)CC2)CC1	inconclusive: 18.4 µM [falling, partial curve]	–
Cc1cc(NC(=O)Nc2nnc(N(C)C3CCCCC3)s2)ccc1Br	active: 25.9 µM	–
COc1ccc(C(=O)N2CCC(c3nc4ccccc4s3)CC2)cc1Cl	inconclusive: 18.4 µM [falling, partial curve, poor fit]	–
Cn1cccc1-c1cc(C(=O)N2CCc3c([nH]c4ccccc34)C2c2ccccn2)[nH]n1 (configuration not stated)	inconclusive: 29.1 µM [falling, single point]	–
CCN(CC)S(=O)(=O)c1ccc(NC(=O)CSc2nc3nc(C)cc(C)c3c(=O)[nH]2)cc1	inconclusive: 13 µM [falling, partial curve, poor fit]	–
CCn1c(SCC(=O)NCCc2ccccc2)nc2c([nH]c3ccccc32)c1=O	inconclusive: 29.1 µM [falling, single point]	–
CN(CC(=O)Nc1cccc(F)c1)C(=O)CCSc1ccc(F)cc1	inconclusive: 29.1 µM [falling, single point]	–
CCC(C)C(CO)NCCCn1cnc(C(=O)Nc2ccc(C)c(C)c2)n1 (configuration not stated)	inconclusive: 13 µM [activator, partial curve, poor fit]	–
Nc1nnnn1/N=C/C=C/c1ccccc1	–	inactive: 9.12%

SMILES	Potency	activity change, negative = inhibition
CC(=O)c1ccc(-n2c(CCC(=O)O)ccc2-c2ccccc2)cc1	inconclusive: 20.6 µM [falling, single point]	–
Cc1cc(C(=O)NC2Cc3ccccc3C2)c(C)o1	inconclusive: 8.2 µM [activator, partial curve, poor fit]	–
Cc1cccc(-n2nnc(C(=O)NC3CCCc4ccccc43)c2N)c1 (configuration not stated)	inconclusive: 25.9 µM [falling, single point]	–
OCC[C@@H]1C[C@@H](O)[C@H](O)[C@@]2(CCCc3ccccc3O2)O1	–	inactive: -8.35%
CCc1ccc(S(=O)(=O)c2nnn3c2nc(N2CCOCC2)c2sccc23)cc1	–	inactive: 11.8%
Nc1ccc(Nc2ccncc2[N+](=O)[O-])cc1	inconclusive: 25.9 µM [falling, partial curve, poor fit]	–
CCc1nnc(NC(=O)CCC(=O)N2CCN(c3cc(C)ccc3C)CC2)s1	inconclusive: 16.4 µM [falling, single point]	–
Cc1ccc(S(=O)(=O)Nc2ccc(Cl)cc2)cc1NC(=O)c1cc2c(s1)CCCC2	inconclusive: 18.4 µM [falling, single point]	–
c1ccc(SCc2nc(-c3ccncc3)no2)cc1	inconclusive: 0.82 µM [activator, full curve]	–
COc1cccc(NC(=S)N(CCN(C)C)C(C)c2cccnc2)c1 (configuration not stated)	inconclusive: 0.0065 µM [falling, full curve, poor fit]	–
Cc1ccc(C2=NCCn3c2c2ccc(C(F)(F)F)cc2[n+]3[O-])cc1	–	inactive: 4.71%
COc1cc(C(=O)NCCOc2ccccc2C)cc(OC)c1OC	inconclusive: 25.9 µM [falling, single point]	–
Cc1cc(=O)[nH]c2cc(O)ccc12	–	inactive: -25.8%
Cc1cccc(NC(=O)CCCn2c(=S)[nH]c3ccccc3c2=O)c1	inconclusive: 14.6 µM [falling, partial curve]	–
COc1ccc(NS(=O)(=O)c2ccc(-c3coc(C)n3)cc2)cc1OC	inconclusive: 2.31 µM [falling, partial curve]	–
CN(C(=O)/C=C/c1ccc2c(c1)OCO2)c1ccccc1	inconclusive: 10.3 µM [activator, partial curve, poor fit]	–
CCOC(=O)c1ccc(NC(=O)c2cccc(S(=O)(=O)N3CCOCC3)c2)cc1	inconclusive: 29.1 µM [falling, single point]	–
CCOC(=O)C1=C(c2ccccc2)N=c2s/c(=C\c3ccc(O)cc3)c(=O)n2C1c1cccs1 (configuration not stated)	active: 16.4 µM	–
Fc1ccc(COc2ccc3ccccc3c2CNc2nn[nH]n2)cc1	inconclusive: 32.6 µM [falling, partial curve, poor fit]	–
COC(=O)c1ccc2ccccc2c1OC1OC(CO)C(O)C(O)C1NC(C)=O (configuration not stated)	inconclusive: 2.06 µM [activator, full curve, poor fit]	–
CSc1nc(SCC(=O)NCC2CCCO2)c2c3c(sc2n1)CN(C)CC3 (configuration not stated)	inconclusive: 11.6 µM [activator, partial curve, poor fit]	–

From PubChem BioAssay AID504444 (National Center for Advancing Translational Sciences (NCATS), 2011)
